Source: PubChem BioAssay AID1508597 (Cure First, 2020)

Assay: 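Knock-downs altering ovarian cancer cell survival with or without PARP inhibitor rucaparib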 (primary screen)
System: human ovarian carcinoma lines grown from tumours: OCI-P5x (papillary serous) and OCI-C5x (clear cell)
Reagent: siRNA pool against human genes, 1.25 pmol siRNA per well
Time to read-out: 72 h or 96 h, depending on the cell culture
Treatment: rucaparib 20 µM (about IC30) or vehicle, present until read-out
Rucaparib or vehicle: Rucaparib
Cell line: OCI-P5x (serous)
Measured: 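ATP luminescence measured at 72 or 96 h according to the culture, then normalised and expressed as percent viability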
Scale: viability, normalised: higher = more viable cells remaining
Call rule: 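Active when normalised viability falls below 80 percent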
Meaning of the calls: active = viability under 80%; inactive = viability 80% or more
Shown is an unselected part of the about 2,100 reagents, under one of the conditions tested. 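Calls flag viability under 80% in either arm, not effects specific to rucaparib; the reference for percent is not stated.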 Entries without a mark were called inactive. A reagent listed more than once was tested more than once; the source does not tell the runs apart. Not stated in the record: the 100% reference.

target	technical replicate	viability, normalised (%)
UIMC1	1	74.4 (active)
UIMC1	1	61.7 (active)
UIMC1	2	74 (active)
UIMC1	2	68.3 (active)
UIMC1	3	78.9 (active)
UIMC1	3	59.4 (active)
FRK	1	83
FRK	2	82.8
FRK	3	71.3 (active)
MED28	1	60.3 (active)
MED28	2	69.4 (active)
MED28	3	78.9 (active)
MIER3	1	49.4 (active)
MIER3	2	58 (active)
MIER3	3	42.5 (active)
MDC1	1	87.8
MDC1	2	95.6
MDC1	3	66.8 (active)
GDPD3	1	75.2 (active)
GDPD3	2	82.1
GDPD3	3	77.6 (active)
GADD45A	1	79.7 (active)
GADD45A	2	81.1
GADD45A	3	78.2 (active)
CHEK2	1	80.5
CHEK2	1	124
CHEK2	2	124
CHEK2	2	83.2
CHEK2	3	60.5 (active)
CHEK2	3	107

Part of the list above in another layout:
MDC1, technical replicate 2
- viability, normalised (%): 95.6

MDC1, technical replicate 3
- viability, normalised (%): 66.8 (active)

GDPD3, technical replicate 1
- viability, normalised (%): 75.2 (active)

GDPD3, technical replicate 2
- viability, normalised (%): 82.1

GDPD3, technical replicate 3
- viability, normalised (%): 77.6 (active)

GADD45A, technical replicate 1
- viability, normalised (%): 79.7 (active)

GADD45A, technical replicate 2
- viability, normalised (%): 81.1

GADD45A, technical replicate 3
- viability, normalised (%): 78.2 (active)

Further records:
target	technical replicate	viability, normalised (%)
MED12	1	56.4 (active)
MED12	2	54.7 (active)
MED12	3	34 (active)
EHMT1	1	64.1 (active)
EHMT1	2	65 (active)
EHMT1	3	66.5 (active)
PIK3C3	1	84.9
PIK3C3	2	87.4
PIK3C3	3	89.6
ENPP6	1	57.1 (active)
ENPP6	2	54.6 (active)
ENPP6	3	71.5 (active)
MED9	1	71.8 (active)
MED9	2	57.9 (active)
MED9	3	72.5 (active)
BRD2	1	84.2
BRD2	1	55 (active)
BRD2	2	61.6 (active)
BRD2	2	81.9
BRD2	3	59.2 (active)
BRD2	3	60.1 (active)
PDIK1L	1	76.9 (active)
PDIK1L	2	85.2
PDIK1L	3	69.6 (active)
PHF7	1	53.7 (active)
PHF7	2	58 (active)
PHF7	3	54.2 (active)
